Out of some 52,000 sequences screened, about 210 (0.4%) were called active.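 How the source made its calls: active means gene whose silencing raises cell survival under the drug, median off-target-corrected z-score across its silencing RNAs 2 or more; inactive means the rest.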 Some of the results follow.
Assay: Resistance to Poly (ADP-Ribose) Polymerase inhibitor: Gene Identification via Genome-wide siRNA Screen
Conditions: mouse BRCA2 R2336H ES cells, olaparib, CellTiter-Glo viability; hits give high values
Summary of the method: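 Genome-wide siRNA screen (3 siRNAs/gene, 20 nM) in mouse ES cells carrying hypomorphic BRCA2 R2336H; olaparib 500 nM added 48 h post-transfection, CellTiter-Glo viability 72 h later. Normalized to plate-median negative control; MAD z-scores, gene median, seed-adjusted.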

Sequence	z-score
GCUGUGGUACAACCACAUUTT against Lrrc8	inactive: 0.69
CGAGGAGUGGUAUUUUUACTT against Slc34a1	inactive: 0.208
GGUGGGAAGUAUUUAUUUATT against Grasp	inactive: -0.107
GGCCUUGAAGUCUGAAUUCTT against Fgd2	inactive: 0.102
GGUCAGAAACUUCACCAAGTT against Ccr6	inactive: 0.0759
CCCUGAGCGAUUCAAUCUGTT against Trim27	inactive: -0.748
GCAUCGUCCUCCAAAGAUUTT against Sf3b1	inactive: -3.23
CCUGAAAACUCGUGAAGGGTT against Gnb1	inactive: -0.016
GGGAACAUGUUUUACUCUUTT against Zfp521	inactive: -0.448
GGUUCUCUGUACAAGAGAUTT against Smarcb1	inactive: -0.375
GGAAUGUCCAAAGCCUUCATT against Olfr907	inactive: -1.68
CCUUCAAGCUGUGCUUUUUTT against Olfr820	inactive: -0.802
GGCAAUGCUGGAUUCUCUATT against Solh	inactive: 2.28
GGUCUUGAAUUUAUGGAUUTT against Stab1	inactive: 1.58
GGACGGAGAGUUUAUUUUUTT against Ptgfrn	inactive: 0.871
GGUUACUAGAUGUAUUUUGTT against Ppp3cb	inactive: 1.81
CCAUAGACUGAAUCAACUATT against Rgs14	inactive: -0.204
CCUUCAACCUUCGAGAUACTT against Kcnh2	inactive: 0.797
GCUGUUUAUCUAGCUGUUATT against Mmp8	inactive: 1.87
CCUCAUCUAUCCCAUCUUUTT against Alad	inactive: 1.01
GGGAAGAGAAGUUAAAGGATT against Wnt8a	inactive: 0.979
GGAAAAGUUUCCACAAACCTT against 1700028P05Rik	inactive: 0.506
GCUCUAAAACUGUGUACUCTT against 4930579K19Rik	inactive: -0.508

Individual results from the entries so far.
z-score with GGCAAUGCUGGAUUCUCUATT against Solh reads inactive: 2.28
z-score with GGUUACUAGAUGUAUUUUGTT against Ppp3cb reads inactive: 1.81
z-score with CCUCAUCUAUCCCAUCUUUTT against Alad reads inactive: 1.01
z-score with GGGAACAUGUUUUACUCUUTT against Zfp521 reads inactive: -0.448
z-score with CCUGAAAACUCGUGAAGGGTT against Gnb1 reads inactive: -0.016

Later entries:

Sequence	z-score
ACACUCAUAGUCCAUUGUUTT against Gm1620	inactive: -0.299
GGUGUUACUAAUGUUUAUCTT against Cd209e	inactive: 0.428
CCAGUGUAGAGCACAAAUCTT against Ahr	inactive: 1.65
CCAGAAUCGAUAGGCAGUCTT against Capn10	inactive: 1.18
GGAAGGUUUGUUUUGUUUGTT against Slc24a3	inactive: -0.0267
CCCAUCCUUCCAACCAGAATT against Coro2a	inactive: -1.84
GGUUCCAUCUUCUCAGGACTT against Olfr395	inactive: 1.59
GGCACUGCACGACAUAGCUTT against Indo	inactive: 2.61
GGCCCAGAGAGAAAAAUACTT against Acadvl	inactive: 0.15
GGAGAAAGGUGCUUCCGAUTT against Mrpl19	inactive: -0.304
GGUGACACAGCUGCUUUUCTT against Dact2	inactive: 0.0343
GGGUUUCCACAGACAAUGUTT against V1rg10	inactive: -0.26
GCAAGAGCACUGCUUAAAATT against E2f1	inactive: 1.53
GGCAGAUAGUACUGAUCAATT against Spt1	inactive: -2.25
GGUGUCUACUCUGAGUUGCTT against Usp52	inactive: 1.11
CAUCCUAGACCUCCAAGCATT against Smr1	inactive: 0.193
CGUGAAAAGGAGUUUCAAGTT against BC021891	inactive: 0.786
CCAGAAACCGUGAUAAAAUTT against Immp2l	inactive: 2.56
GGACAACUACAUUGUACUGTT against Insr	inactive: 0.537
GGUGUUGUGAAGUCUUUUGTT against Xkh	inactive: 0.677
GGGUAUGAAUAUGAGUGCCTT against 4933417O08Rik	inactive: 0.136
GGAUUUCAUUAUGUAGACUTT against Rag1	inactive: 0.558
CCCGAUGAAGUGUUUUUAGTT against Oosp1	inactive: 0.6

Sequence	z-score
GGAUUUGCAUCUUAAGGAATT against ORF63	inactive: -1.83
GGAAAAACUGUGCAAAUAATT against Krtcap1	inactive: -1.79
GGCUCUUCUCAACUCCAAGTT against Lmna	inactive: 0.338
CCGAGGUUGUGAAACGAUGTT against Trp63	inactive: -0.83
GGUGUAUCUGUUCUGUUAATT against Impg1	inactive: -0.834
GCUACAUGAUGUUGUGCAGTT against Sec22l2	inactive: 0.749
GCAAGCUGUACGCCAAUGUTT against D8Ertd457e	inactive: -2.29
GGUGAUUUUGACCAGUUCUTT against Cyp4v3	inactive: -0.185
GGGCCUGAUCUACCUGUUUTT against Slc6a18	inactive: -1
GGAUGUGAAGAUUGUCAUUTT against Usp5	inactive: -1.73
GGUAUGCAACCUUGCCUUUTT against D11Ertd99e	inactive: 0.235
CGCGUGCUCUCAUUAAUGATT against Gna12	inactive: -0.0774
GCAGAGAUAUCAAAUGGGATT against Atp6v1a1	inactive: 0.491
GGCCAUCACUAAAUAAUGGTT against D2Ertd485e	inactive: -0.403
GCUACAAAGAUCACGAAAATT against C2	inactive: 0.899
CCUAAUAGUGCCUAUGAUUTT against Smc2l1	inactive: -1.85
GGAUGUCACUGUUUCACAATT against Clic6	inactive: 0.416
CCUUUUGAGAGCUCCAGAUTT against 2210013M04Rik	inactive: 1.27
GGUCACCUUUAUGCUACUUTT against Traf1	inactive: -1.51
CCAAGCCUACUACCAUCAUTT against Fabp3	inactive: 1.04
UCUUCCGACUGCCUUUCUGTT against Olfr1417	inactive: 0.58
CGGAUUUACACCAGUACCATT against AI449175	inactive: -0.285
